In the supplement of paper PMC11732987, “Enantioselective OTUD7B fragment discovery through chemoproteomics screening and high-throughput optimisation” (Communications Chemistry, 2025):
The other results are listed elsewhere or left out. The data scatter; read single values as rough.

Chains of the proteins cited; added tags and fusions are not shown. Lines headed by an entry give the natural chain unless they say otherwise; changes in a name come on top.
UniProt Q9Y4A5, whole entry, looked up: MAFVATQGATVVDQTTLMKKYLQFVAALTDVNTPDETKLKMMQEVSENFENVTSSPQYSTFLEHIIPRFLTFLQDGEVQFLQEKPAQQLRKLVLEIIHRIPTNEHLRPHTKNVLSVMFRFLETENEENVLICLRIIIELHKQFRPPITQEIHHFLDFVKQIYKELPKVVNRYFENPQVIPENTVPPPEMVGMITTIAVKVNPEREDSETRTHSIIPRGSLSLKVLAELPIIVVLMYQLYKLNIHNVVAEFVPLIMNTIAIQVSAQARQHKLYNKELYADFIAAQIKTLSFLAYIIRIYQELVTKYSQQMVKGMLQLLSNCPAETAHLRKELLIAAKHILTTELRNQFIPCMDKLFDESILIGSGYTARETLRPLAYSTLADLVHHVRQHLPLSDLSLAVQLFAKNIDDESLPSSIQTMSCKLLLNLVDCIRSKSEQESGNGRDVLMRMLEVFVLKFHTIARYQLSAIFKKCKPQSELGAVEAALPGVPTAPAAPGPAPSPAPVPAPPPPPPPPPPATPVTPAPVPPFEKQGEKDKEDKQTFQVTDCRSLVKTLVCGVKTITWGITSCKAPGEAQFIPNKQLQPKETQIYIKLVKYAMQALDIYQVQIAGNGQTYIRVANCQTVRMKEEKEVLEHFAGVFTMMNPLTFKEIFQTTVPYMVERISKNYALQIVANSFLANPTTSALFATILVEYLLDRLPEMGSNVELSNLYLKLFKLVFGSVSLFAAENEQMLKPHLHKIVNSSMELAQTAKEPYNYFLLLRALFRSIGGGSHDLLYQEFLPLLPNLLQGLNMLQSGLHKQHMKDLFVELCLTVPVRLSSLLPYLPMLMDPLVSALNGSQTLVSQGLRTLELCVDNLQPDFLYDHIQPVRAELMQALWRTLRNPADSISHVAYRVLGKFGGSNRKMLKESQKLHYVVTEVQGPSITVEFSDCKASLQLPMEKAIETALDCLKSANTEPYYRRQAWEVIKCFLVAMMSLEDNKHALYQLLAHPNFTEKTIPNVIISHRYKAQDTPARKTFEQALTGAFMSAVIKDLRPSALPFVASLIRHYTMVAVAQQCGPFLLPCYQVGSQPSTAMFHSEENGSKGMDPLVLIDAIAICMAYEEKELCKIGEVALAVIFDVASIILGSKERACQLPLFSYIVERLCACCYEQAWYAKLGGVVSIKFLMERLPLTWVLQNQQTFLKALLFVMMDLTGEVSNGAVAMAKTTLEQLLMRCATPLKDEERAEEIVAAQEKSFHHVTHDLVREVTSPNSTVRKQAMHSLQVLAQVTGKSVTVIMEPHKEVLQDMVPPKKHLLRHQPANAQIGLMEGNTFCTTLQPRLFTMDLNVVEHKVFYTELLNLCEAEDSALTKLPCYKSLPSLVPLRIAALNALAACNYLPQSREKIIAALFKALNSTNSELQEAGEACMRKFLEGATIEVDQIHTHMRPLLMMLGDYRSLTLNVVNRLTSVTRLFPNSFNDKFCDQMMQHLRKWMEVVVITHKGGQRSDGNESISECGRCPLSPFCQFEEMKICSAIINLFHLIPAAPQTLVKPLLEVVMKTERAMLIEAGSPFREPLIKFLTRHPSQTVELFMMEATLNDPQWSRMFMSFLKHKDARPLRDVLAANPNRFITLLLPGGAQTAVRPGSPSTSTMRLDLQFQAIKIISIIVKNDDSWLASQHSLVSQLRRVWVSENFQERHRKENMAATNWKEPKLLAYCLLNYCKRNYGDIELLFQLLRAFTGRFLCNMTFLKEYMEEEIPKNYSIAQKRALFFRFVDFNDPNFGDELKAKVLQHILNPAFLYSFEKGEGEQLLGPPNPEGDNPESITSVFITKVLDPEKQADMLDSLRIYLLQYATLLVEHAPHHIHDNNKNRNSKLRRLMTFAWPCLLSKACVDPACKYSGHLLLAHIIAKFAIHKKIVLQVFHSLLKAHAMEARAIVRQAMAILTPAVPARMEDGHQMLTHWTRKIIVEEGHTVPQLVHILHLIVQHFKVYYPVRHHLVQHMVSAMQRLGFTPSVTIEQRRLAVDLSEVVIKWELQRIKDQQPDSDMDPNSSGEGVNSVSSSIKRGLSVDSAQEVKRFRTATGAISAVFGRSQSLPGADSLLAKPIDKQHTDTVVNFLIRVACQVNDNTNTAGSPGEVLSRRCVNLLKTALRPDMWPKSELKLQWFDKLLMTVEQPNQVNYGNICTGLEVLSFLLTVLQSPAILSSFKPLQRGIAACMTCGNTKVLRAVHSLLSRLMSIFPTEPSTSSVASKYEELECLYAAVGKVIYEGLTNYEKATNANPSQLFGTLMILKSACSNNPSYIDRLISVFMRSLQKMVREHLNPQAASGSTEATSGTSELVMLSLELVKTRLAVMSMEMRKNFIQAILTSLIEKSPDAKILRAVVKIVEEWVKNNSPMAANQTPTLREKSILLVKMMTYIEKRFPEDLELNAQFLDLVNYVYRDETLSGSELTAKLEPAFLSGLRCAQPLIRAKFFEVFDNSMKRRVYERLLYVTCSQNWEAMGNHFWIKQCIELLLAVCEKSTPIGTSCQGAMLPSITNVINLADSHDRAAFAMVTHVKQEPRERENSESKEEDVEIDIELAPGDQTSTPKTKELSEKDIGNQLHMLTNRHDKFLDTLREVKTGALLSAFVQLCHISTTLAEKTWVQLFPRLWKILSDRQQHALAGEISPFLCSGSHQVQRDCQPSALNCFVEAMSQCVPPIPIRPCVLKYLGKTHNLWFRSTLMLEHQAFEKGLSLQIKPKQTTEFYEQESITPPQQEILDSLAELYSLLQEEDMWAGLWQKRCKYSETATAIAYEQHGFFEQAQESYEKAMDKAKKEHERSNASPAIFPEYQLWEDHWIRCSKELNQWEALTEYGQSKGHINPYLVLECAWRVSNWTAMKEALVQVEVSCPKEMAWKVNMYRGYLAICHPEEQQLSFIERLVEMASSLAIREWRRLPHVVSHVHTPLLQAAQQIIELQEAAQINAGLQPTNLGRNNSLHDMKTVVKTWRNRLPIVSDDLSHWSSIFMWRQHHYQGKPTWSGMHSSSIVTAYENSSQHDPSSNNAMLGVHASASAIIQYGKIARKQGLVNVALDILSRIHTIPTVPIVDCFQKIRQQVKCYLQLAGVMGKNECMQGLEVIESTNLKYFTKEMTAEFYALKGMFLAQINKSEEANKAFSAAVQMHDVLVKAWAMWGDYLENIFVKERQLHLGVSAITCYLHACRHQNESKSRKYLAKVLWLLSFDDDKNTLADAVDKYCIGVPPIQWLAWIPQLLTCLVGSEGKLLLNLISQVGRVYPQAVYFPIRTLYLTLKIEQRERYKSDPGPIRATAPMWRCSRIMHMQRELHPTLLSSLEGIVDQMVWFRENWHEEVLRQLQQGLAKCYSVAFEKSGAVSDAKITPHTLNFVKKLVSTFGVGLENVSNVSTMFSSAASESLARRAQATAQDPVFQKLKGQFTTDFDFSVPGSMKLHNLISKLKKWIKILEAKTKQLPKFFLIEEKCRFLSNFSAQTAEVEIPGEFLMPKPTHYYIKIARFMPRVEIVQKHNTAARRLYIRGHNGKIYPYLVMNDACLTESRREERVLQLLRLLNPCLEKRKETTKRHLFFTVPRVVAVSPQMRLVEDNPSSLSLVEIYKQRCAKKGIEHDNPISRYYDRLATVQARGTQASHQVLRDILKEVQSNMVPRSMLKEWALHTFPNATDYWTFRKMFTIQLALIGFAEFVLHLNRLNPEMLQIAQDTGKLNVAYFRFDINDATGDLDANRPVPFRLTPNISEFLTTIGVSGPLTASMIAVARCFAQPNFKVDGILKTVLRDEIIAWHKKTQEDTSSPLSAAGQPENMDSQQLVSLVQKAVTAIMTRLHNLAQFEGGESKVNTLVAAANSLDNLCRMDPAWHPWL
UniProt Q8IYL2: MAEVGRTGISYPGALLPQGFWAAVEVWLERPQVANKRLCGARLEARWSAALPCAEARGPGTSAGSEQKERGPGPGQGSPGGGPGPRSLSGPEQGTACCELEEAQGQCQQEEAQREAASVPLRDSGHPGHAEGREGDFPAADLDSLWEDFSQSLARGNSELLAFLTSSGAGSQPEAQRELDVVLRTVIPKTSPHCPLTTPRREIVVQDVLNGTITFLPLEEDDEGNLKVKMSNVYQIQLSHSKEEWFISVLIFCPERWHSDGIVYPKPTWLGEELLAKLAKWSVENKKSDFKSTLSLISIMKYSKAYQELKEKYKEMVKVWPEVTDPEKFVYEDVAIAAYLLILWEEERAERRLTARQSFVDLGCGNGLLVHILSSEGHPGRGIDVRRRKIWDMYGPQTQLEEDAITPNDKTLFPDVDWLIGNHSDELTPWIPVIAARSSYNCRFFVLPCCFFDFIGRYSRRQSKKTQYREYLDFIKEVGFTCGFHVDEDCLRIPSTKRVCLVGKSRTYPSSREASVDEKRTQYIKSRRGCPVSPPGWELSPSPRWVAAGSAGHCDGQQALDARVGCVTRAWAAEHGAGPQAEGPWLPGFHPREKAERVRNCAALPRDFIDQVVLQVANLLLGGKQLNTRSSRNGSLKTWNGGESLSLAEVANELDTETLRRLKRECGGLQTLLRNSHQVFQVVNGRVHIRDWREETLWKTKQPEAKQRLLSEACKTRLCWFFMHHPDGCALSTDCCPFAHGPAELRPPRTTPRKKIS
UniProt Q8TBC4: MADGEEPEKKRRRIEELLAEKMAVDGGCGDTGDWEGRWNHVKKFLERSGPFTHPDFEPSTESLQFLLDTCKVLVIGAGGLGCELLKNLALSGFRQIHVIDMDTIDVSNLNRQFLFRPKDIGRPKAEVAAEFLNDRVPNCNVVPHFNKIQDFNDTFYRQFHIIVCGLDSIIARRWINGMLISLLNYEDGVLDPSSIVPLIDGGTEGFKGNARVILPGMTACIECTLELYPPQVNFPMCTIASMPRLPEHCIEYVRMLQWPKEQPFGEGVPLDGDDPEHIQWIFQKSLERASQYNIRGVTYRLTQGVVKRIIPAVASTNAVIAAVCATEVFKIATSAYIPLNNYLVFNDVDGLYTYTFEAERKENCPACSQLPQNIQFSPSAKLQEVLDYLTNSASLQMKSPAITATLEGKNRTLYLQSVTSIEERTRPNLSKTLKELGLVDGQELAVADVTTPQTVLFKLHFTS
UniProt Q8N584: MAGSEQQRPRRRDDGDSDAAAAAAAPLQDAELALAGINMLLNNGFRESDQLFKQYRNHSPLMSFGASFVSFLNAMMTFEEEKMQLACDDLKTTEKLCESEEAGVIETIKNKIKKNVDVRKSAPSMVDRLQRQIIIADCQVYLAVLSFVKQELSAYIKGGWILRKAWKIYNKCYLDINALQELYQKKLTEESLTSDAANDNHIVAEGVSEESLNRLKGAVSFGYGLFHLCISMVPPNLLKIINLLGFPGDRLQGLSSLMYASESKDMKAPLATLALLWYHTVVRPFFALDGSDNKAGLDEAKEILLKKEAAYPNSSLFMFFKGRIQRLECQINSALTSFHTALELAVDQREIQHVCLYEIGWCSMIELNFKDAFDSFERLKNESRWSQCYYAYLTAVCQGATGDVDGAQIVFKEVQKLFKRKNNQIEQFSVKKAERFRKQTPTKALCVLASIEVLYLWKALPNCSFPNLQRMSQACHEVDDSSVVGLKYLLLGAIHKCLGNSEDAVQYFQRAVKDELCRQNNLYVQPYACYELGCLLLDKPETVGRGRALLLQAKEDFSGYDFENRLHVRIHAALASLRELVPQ
UniProt Q96CW5: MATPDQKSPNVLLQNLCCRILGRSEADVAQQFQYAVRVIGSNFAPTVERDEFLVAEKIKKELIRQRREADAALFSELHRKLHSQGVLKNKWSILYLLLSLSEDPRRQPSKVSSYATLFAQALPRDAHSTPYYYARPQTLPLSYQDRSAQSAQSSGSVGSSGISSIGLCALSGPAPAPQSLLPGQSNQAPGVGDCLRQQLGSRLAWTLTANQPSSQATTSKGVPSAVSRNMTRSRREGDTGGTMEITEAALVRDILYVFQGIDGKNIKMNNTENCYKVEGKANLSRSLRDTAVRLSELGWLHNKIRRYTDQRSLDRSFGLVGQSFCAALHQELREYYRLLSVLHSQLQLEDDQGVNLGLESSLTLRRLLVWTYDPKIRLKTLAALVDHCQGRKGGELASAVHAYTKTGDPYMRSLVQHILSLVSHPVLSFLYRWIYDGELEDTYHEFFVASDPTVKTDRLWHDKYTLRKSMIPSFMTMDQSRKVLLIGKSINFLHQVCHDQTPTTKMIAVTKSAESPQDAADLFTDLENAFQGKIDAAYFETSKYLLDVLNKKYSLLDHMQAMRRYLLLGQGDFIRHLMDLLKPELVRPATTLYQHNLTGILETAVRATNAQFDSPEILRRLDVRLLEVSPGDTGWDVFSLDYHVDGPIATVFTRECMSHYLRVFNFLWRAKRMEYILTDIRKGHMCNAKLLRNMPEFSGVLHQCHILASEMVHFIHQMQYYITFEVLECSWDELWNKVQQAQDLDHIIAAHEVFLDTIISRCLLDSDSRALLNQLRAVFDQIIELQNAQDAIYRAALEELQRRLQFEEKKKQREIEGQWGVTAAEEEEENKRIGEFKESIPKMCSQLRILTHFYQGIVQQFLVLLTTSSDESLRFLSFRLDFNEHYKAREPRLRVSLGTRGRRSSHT

Compound: ClCC(=O)N[C@@H]1CCCc2ccccc12
Assay: log2 mean competition ratio of IA-DTB cysteine labelling (DMSO/compound) (log2 ratio); higher = stronger cysteine engagement by compound
Conditions: 50 µM; treatment time: 4 h; cell line lysate: HEK293T
Method: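 IA-DTB competitive cysteine chemoproteomics in HEK293T RIPA lysate. Lysates were treated with compound 29 or 30 at 50 or 200 µM for 4 h, then IA-DTB (500 µM, 1 h), trypsin-digested, NeutrAvidin-enriched and analysed by diaPASEF. Competition ratio = intensity DMSO / intensity compound (n=4 treated, n=64 DMSO); binding: mean log2 CR ≥ 1 and p ≤ 0.05 plus QC filters. Target is the cysteine site.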

| Target | log2 mean competition ratio |
| --- | --- |
| TRRAP C2449 (UniProt Q9Y4A5) | 0.019 |
| TRMT44 C53 (UniProt Q8IYL2) | 0.0534 |
| TRRAP C2279 (UniProt Q9Y4A5) | 0.255 |
| TTC30A C454 | 0.129 |
| TTC3 C109 (UniProt P53804) | 0.128 |
| TTI1 C351 (UniProt O43156) | -0.29 |
| UBE2O C101 | -0.0513 |
| TTC28 C2077 (UniProt Q96AY4) | 0.0362 |
| TRNT1 C373 (UniProt Q96Q11) | 0.291 |
| TXNRD2 C168 (UniProt Q9NNW7) | -0.0201 |
| TUBB3 C354 (UniProt Q13509) | -0.0143 |
| UBE4B C581 (UniProt O95155) | 0.0369 |
| UBA3 C28 (UniProt Q8TBC4) | 0.303 |
| TUT4 C825 (UniProt Q5TAX3) | -0.28 |
| TTC39C C97 (UniProt Q8N584) | -0.304 |
| TTLL12 C528 | -0.585 |
| TUT7 C334 (UniProt Q5VYS8) | 0.218 |
| TSR2 C114 (UniProt Q969E8) | -0.153 |
| TUBGCP3 C388 (UniProt Q96CW5) | -0.139 |
| TTC17 C114 (UniProt Q96AE7) | 0.573 |

Same assay, conditions: 200 µM; treatment time: 4 h; cell line lysate: HEK293T

| Target | log2 mean competition ratio |
| --- | --- |
| TRRAP C2449 (UniProt Q9Y4A5) | 0.0211 |
| TRMT44 C53 (UniProt Q8IYL2) | -0.213 |
| TRRAP C2279 (UniProt Q9Y4A5) | -0.172 |
| TTC30A C454 | 0.0125 |
| TTC3 C109 (UniProt P53804) | 0.515 |
| TTI1 C351 (UniProt O43156) | 0.0887 |
| UBE2O C101 | 0.17 |
| TTC28 C2077 (UniProt Q96AY4) | 0.342 |
| TRNT1 C373 (UniProt Q96Q11) | 0.678 |
| TXNRD2 C168 (UniProt Q9NNW7) | 0.0193 |
| TUBB3 C354 (UniProt Q13509) | -0.157 |
| UBE4B C581 (UniProt O95155) | -0.278 |
| UBA3 C28 (UniProt Q8TBC4) | 0.209 |
| TUT4 C825 (UniProt Q5TAX3) | 0.101 |
| TTC39C C97 (UniProt Q8N584) | -0.287 |
| TTLL12 C528 | -0.31 |
| TUT7 C334 (UniProt Q5VYS8) | 0.495 |
| TSR2 C114 (UniProt Q969E8) | 0.014 |
| TUBGCP3 C388 (UniProt Q96CW5) | 0.0965 |
| TTC17 C114 (UniProt Q96AE7) | -0.0719 |
